According to the supplement of paper PMC12819154, “High-throughput peptide-centric local stability assay extends protein–ligand identification to membrane proteins, tissues and bacteria” (Nature Structural & Molecular Biology, 2025):
Some of the results follow. Small differences around the control level are noise.

Amino acid sequences for entries named in this document (tags omitted). A change or cut given only in a name is not applied to a line headed by its entry.
UniProt Q9Z1Z2: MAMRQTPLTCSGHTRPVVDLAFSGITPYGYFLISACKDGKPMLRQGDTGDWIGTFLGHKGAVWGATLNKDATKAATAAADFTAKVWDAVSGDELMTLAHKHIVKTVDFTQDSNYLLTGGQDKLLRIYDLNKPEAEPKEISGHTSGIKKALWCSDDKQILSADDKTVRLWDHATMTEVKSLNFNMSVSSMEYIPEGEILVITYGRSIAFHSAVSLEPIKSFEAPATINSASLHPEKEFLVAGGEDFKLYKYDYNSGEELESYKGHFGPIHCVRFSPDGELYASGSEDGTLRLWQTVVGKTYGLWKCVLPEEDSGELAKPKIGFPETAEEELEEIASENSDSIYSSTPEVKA
UniProt Q9Z321: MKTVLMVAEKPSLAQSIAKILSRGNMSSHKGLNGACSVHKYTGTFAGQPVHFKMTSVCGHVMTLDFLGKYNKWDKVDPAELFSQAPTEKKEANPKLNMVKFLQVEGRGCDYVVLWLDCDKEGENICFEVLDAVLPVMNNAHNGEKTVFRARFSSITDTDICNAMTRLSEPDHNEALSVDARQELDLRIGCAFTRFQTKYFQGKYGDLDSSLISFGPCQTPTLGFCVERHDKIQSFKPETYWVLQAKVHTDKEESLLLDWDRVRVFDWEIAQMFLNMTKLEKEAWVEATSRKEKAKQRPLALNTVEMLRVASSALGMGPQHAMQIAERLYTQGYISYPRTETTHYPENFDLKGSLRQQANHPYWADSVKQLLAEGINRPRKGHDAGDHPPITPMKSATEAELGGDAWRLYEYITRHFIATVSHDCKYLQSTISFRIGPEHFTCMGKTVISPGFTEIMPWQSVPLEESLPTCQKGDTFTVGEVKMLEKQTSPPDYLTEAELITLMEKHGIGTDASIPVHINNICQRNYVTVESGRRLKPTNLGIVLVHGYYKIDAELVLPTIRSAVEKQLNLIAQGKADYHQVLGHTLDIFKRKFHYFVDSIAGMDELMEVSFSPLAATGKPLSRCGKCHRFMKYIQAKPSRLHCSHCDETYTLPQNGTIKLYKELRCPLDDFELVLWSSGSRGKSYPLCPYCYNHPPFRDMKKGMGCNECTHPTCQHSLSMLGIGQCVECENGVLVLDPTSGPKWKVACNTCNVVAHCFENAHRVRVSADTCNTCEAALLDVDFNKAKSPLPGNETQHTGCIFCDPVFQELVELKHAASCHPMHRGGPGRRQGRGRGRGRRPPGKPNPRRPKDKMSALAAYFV
UniProt Q9WVH4: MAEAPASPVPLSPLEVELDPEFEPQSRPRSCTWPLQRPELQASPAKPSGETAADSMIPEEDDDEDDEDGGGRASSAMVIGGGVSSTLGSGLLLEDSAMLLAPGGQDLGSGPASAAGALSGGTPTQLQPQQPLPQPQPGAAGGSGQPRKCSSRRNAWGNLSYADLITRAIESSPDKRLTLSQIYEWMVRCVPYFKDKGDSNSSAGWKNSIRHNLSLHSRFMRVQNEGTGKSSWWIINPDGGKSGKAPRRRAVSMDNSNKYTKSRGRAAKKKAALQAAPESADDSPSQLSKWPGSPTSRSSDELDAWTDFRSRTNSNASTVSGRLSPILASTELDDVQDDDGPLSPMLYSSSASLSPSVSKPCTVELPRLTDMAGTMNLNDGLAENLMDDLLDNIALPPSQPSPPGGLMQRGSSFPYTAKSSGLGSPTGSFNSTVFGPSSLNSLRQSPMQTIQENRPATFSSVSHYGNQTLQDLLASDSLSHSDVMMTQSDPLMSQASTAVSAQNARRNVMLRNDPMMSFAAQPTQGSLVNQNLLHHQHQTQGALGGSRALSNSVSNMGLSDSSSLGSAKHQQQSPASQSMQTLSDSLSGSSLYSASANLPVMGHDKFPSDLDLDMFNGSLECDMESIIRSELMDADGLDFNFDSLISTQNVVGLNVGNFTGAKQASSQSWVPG
UniProt Q9Z2M7: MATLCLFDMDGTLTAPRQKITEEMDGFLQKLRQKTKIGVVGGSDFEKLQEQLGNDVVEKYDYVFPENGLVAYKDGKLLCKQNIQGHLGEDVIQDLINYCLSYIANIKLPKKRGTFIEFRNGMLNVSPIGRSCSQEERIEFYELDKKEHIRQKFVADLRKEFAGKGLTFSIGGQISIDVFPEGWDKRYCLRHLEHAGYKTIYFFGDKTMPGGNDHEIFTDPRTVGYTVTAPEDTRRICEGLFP
UniProt Q9Z0S9, whole entry: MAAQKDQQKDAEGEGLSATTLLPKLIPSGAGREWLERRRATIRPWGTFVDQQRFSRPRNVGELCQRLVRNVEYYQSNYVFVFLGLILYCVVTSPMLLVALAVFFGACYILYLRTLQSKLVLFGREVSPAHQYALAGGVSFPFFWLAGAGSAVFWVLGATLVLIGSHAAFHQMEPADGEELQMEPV
UniProt Q9Z2X1: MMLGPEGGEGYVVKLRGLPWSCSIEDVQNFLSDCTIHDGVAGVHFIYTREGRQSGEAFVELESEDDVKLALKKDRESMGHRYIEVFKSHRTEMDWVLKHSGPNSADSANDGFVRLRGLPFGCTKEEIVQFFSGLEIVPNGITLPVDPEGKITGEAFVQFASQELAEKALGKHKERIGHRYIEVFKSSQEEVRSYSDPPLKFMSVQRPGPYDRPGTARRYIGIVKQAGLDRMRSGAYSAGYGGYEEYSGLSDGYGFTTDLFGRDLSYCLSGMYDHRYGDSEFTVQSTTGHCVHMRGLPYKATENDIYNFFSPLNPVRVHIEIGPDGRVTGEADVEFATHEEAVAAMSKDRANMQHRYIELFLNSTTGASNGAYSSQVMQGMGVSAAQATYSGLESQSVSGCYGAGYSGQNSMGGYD
UniProt Q9Z0M5: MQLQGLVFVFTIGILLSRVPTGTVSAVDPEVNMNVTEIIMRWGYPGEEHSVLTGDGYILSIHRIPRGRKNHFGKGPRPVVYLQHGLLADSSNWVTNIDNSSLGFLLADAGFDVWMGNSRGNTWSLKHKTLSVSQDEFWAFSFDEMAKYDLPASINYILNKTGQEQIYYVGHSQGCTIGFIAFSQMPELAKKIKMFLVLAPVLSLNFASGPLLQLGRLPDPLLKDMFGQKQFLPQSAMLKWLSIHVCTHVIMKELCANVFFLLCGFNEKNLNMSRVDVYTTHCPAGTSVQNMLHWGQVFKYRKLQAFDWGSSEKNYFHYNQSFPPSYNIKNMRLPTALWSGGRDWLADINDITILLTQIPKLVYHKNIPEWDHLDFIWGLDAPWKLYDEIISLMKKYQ
UniProt Q9Z1T6: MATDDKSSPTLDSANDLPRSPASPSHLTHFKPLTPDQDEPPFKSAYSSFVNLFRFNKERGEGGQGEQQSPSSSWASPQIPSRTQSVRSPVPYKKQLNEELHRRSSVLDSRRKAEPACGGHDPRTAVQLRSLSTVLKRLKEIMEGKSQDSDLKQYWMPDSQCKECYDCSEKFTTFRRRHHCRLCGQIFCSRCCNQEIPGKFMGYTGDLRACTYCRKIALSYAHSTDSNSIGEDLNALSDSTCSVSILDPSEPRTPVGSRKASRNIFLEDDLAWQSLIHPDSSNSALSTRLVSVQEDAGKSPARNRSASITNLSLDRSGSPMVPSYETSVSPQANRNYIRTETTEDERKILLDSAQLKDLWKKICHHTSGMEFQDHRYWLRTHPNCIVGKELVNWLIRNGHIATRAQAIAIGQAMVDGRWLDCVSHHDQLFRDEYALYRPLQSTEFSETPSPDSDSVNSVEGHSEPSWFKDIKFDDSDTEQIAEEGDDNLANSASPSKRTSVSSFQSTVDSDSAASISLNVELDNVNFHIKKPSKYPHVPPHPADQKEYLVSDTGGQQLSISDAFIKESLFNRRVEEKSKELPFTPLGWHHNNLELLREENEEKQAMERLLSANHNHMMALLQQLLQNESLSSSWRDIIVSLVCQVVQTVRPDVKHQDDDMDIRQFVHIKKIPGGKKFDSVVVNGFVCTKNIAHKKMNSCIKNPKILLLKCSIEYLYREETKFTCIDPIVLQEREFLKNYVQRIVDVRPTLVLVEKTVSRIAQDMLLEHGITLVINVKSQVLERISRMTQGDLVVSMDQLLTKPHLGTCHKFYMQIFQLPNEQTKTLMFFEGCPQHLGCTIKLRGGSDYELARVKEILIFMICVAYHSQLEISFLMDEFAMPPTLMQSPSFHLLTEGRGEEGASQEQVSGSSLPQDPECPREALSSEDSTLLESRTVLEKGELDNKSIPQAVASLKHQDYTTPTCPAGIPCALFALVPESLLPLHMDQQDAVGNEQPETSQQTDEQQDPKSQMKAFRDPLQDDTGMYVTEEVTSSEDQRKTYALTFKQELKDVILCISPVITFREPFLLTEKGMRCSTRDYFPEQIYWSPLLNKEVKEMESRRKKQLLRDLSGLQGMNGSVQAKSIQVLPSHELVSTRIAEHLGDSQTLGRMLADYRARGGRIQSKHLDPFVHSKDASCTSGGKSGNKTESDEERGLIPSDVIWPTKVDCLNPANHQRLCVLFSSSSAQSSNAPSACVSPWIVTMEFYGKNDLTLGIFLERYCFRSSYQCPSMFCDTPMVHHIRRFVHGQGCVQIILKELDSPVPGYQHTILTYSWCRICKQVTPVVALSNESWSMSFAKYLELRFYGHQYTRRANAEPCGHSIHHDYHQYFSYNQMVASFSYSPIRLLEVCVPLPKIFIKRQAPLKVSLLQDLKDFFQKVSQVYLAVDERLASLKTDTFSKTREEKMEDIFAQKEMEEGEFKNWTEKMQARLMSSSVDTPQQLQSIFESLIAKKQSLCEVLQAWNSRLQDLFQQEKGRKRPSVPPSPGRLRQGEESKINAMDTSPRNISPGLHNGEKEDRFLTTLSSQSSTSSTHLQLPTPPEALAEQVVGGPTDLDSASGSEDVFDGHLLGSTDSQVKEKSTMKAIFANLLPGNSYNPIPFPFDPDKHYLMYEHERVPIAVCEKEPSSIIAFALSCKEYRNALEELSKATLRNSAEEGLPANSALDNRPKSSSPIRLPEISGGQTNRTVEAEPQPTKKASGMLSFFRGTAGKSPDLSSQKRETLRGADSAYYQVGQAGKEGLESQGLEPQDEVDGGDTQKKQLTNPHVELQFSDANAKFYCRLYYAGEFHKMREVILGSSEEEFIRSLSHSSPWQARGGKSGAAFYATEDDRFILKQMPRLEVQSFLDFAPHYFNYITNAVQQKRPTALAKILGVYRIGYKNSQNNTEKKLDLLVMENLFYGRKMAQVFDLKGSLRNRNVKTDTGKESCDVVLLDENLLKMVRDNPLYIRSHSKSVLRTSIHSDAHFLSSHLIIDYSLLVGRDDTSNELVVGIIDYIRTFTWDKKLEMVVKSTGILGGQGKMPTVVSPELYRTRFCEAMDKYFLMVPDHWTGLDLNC
UniProt Q9Z204: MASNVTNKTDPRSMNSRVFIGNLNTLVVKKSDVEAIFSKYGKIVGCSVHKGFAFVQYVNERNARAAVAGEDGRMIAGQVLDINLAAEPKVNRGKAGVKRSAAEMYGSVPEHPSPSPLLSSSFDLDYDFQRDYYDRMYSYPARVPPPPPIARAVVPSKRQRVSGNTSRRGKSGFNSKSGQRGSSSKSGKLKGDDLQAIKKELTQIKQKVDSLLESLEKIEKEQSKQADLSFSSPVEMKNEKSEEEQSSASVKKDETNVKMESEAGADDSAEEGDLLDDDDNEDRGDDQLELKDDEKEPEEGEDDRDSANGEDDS
UniProt Q9Z2U0: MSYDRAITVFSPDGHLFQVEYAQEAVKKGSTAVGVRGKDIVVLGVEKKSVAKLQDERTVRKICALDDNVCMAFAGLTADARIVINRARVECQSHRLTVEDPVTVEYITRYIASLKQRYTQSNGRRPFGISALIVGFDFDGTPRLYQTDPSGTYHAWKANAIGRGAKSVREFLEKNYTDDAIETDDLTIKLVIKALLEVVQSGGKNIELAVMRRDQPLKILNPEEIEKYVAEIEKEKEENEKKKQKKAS
UniProt Q9Z2E2: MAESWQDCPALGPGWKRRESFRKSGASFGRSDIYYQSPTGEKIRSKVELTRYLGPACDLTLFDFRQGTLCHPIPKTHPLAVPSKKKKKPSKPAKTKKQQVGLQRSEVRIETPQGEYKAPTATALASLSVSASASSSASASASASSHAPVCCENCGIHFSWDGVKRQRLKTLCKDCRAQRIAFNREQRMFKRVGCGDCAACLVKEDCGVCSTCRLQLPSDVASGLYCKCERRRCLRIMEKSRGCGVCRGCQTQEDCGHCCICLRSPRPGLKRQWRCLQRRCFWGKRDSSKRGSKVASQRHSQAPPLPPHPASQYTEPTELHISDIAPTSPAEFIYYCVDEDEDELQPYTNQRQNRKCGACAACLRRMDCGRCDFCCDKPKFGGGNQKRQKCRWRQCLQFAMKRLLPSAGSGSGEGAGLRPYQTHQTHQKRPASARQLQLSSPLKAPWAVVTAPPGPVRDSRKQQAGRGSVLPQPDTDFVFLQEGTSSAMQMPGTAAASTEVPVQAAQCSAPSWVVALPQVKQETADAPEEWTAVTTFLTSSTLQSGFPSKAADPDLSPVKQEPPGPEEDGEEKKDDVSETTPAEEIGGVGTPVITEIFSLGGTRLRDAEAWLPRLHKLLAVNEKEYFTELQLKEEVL
UniProt Q9Z0F7, whole entry: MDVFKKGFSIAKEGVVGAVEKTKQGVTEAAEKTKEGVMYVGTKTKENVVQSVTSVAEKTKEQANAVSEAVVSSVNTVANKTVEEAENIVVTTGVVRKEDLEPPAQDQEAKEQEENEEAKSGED

Compound: CN[C@@H]1C[C@H]2O[C@@](C)([C@@H]1OC)n1c3ccccc3c3c4c(c5c6ccccc6n2c5c31)C(=O)NC4 [staurosporine]
Assay: log2 fold change of tryptic peptide abundance, ligand vs vehicle (limited proteolysis) (log2 ratio); higher = more trypsin-susceptible (destabilized)
Conditions: ligand concentration: 20 uM; sample: mouse liver crude lysate; replicate design: treated separately

Row | Target | log2 fold change
1 | UniProt Q9Z1Z2 (peptide sequence: AATAAADFTAK, peptide start residue: 74) | -0.492
2 | UniProt Q9Z0L8 (peptide sequence: NLGGISHAPNAVK, peptide start residue: 253) | 0.449
3 | UniProt Q9WVG9 (peptide sequence: QQDTSASMPK, peptide start residue: 378) | 0.366
4 | UniProt Q9Z321 (peptide sequence: VACNTCNVVAHCFENAHR, peptide start residue: 746) | -0.772
5 | UniProt Q9Z0F8 (peptide sequence: IIKPFPAPQTPGR, peptide start residue: 726) | -0.365
6 | UniProt Q9WVH4 (peptide sequence: GSSFPYTAK, peptide start residue: 410) | -0.125
7 | UniProt Q9Z2R6 (peptide sequence: KGGGGTGSGAEPVPGASNR, peptide start residue: 5) | 0.0396
8 | UniProt Q9Z2M7 (peptide sequence: QKFVADLR, peptide start residue: 151) | 0.21
9 | UniProt Q9Z329 (peptide sequence: HLATGNYLAAELNPDYR, peptide start residue: 307) | 0.292
10 | UniProt Q9Z1S8 (peptide sequence: AKPTPLDLR, peptide start residue: 512) | -0.115
11 | UniProt Q9Z0U1 (peptide sequence: VFLRPSPEDEAIYGPNTK, peptide start residue: 474) | -0.495
12 | UniProt Q9Z0S9 (peptide sequence: DQQKDAEGEGLSATTLLPK, peptide start residue: 6) | -0.187
13 | UniProt Q9Z2X1 (peptide sequence: HSGPNSADSANDGFVR, peptide start residue: 99) | -0.417
14 | UniProt Q9Z0M5 (peptide sequence: WGYPGEEHSVLTGDGYILSIHR, peptide start residue: 42) | -0.274
15 | UniProt Q9Z1T6 (peptide sequence: LVSVQEDAGKSPAR, peptide start residue: 289) | -0.282
16 | UniProt Q9Z0N1 (peptide sequence: FKNELER, peptide start residue: 69) | 0.189

Row | Target | log2 fold change
17 | UniProt Q9Z1E4 (peptide sequence: VGGIYTVLQTK, peptide start residue: 40) | 0.208
18 | UniProt Q9Z127 (peptide sequence: EKMLEAR, peptide start residue: 27) | -0.491
19 | UniProt Q9Z204 (peptide sequence: IVGCSVHK, peptide start residue: 43) | -0.27
20 | UniProt Q9Z160 (peptide sequence: LAWLSSMTK, peptide start residue: 972) | -0.267
21 | UniProt Q9Z0S1 (peptide sequence: LTDIHGNALQYNK, peptide start residue: 262) | -0.432
22 | UniProt Q9Z206 (peptide sequence: VQDFLQR, peptide start residue: 233) | -0.0421
23 | UniProt Q9Z2U0 (peptide sequence: ILNPEEIEK, peptide start residue: 219) | 0.185
24 | UniProt Q9Z2I8 (peptide sequence: QKDIFAMDDKSENEPIENEAAR, peptide start residue: 271) | -0.105
25 | UniProt Q9Z2G1 (peptide sequence: GAVYADSGNFER, peptide start residue: 382) | 0.174
26 | UniProt Q9Z103 (peptide sequence: KILSDIGLEYCKEHIEDFK, peptide start residue: 21) | -0.623
27 | UniProt Q9Z2E2 (peptide sequence: KQQVGLQR, peptide start residue: 97) | -0.517
28 | UniProt Q9Z2L6 (peptide sequence: FFDHCEK, peptide start residue: 222) | -0.329
29 | UniProt Q9Z0F7 (peptide sequence: EGVVGAVEK, peptide start residue: 13) | 0.0715
30 | UniProt Q9Z0P4 (peptide sequence: KVLGLQDTIK, peptide start residue: 315) | 0.273
31 | UniProt Q9Z1R2 (peptide sequence: AAGARPLTSPESLSR, peptide start residue: 1095) | -0.221

A different layout for some results above.
Row	Target	log2 fold change
19	UniProt Q9Z204 (peptide sequence: IVGCSVHK, peptide start residue: 43)	-0.27
21	UniProt Q9Z0S1 (peptide sequence: LTDIHGNALQYNK, peptide start residue: 262)	-0.432
